Results of single-concentration screens

Data taken from ChEMBL document CHEMBL3988442, “University of Dundee, Small-Polar-MMV Screening Library” (2021).

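Whole-cell growth test on Mycobacterium tuberculosis, read after 4 days in a medium based on cholesterol and the lipid DPPC; the read-out is not stated. Compounds at 50 µM. Direction is inferred from retests: higher values go with more growth inhibition. Size under these conditions: about 69,000 compounds, about 370 of them at 50% or above in at least one test.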

The filed quantity is “Percent Effect” (%). The record does not define 0% and 100%; most values in the screen are far below 50% and negative numbers occur (in some assays of this library far below -100). Compounds were drawn at random from those tested, without regard to their results. Two or more numbers in one place are separate tests of the same structure; such repeats can differ widely.

structure | Percent Effect
[H][C@]12CCC[C@@]1(COc1ccccn1)CN(C(=O)Cc1ccccn1)C2 | -9.446%
CCNC(=O)CN(Cc1ccoc1)C1CCCCC1 | 15.46%
Br.Cn1cc(CN2CCC(c3cc(COc4cccc(Cl)c4)[nH]n3)C2)cn1 (stereo not shown) | 6.33% & 3.594%
Cc1cc(C(=O)N2CCCC(Cn3cc(C4CC4)nn3)C2)nc(C)n1 (stereo not shown) | -4.412%
COc1cccc(-c2noc(C3CCN(Cc4ccccc4F)C3)n2)c1.Cl (stereo not shown) | -35.16%
Cc1ccc(C(=O)N2CC(C)(C)[C@@](C)(O)C2)cc1N1CCNC1=O | 6.294% & -2.821%
Cc1cc(C(=O)Nc2cnn(CC(F)(F)F)c2)nc(N(C)C)n1 | -12.02%
Cc1ncc(S(=O)(=O)Nc2ccnn2C2CCCCC2)[nH]1 | -10.97%
O=c1ccc(-c2cccs2)nn1CN1CCOCC1 | 7.225%
CC(=O)c1ccc(N2CCCC(CO)(Cc3ccccc3C)C2)nc1 (stereo not shown) | 14.62% & 8.425%
Cc1[nH]c(-c2ccccc2)nc1C(=O)N1CC[C@H](CO)[C@@H](O)C1 | 4.355%
CN(C)CCNC(=O)CC1CCN(c2cccnn2)CC1 | 8.766%
Cc1cnn(CC2CCCN2C(=O)c2cccc(S(C)(=O)=O)c2)c1 (stereo not shown) | -14.75%
C/C(=C/c1ccccc1)CNCc1cccc(C(N)=O)c1 | -2.767%
[H][C@@]12CCN(C3CCCC3)C[C@@]1([H])[C@H](C(=O)NC1CC1)CCO2 | -4.698%
O=C(CN1CCC(c2ccccc2)C1)NCC(F)(F)F (stereo not shown) | 8.294%
CCN1CCc2[nH]cnc2C12CCN(c1ccc(Cl)c(C(=O)O)n1)CC2 | -18.97%
COCCCN1CC2(CCCN(c3ncnc4[nH]ccc34)C2)CCC1=O (stereo not shown) | -28.53%
Cc1ncc(C(=O)N2CC(C(=O)N3CCCCCC3)C2)c(C)n1 | -3.419% & -5.057%
Cc1cc(C(=O)N2CCN(c3ncc4c(n3)CCOC4)CC2)sc1C | -8.767% & -14.45%
Cc1nc(N)nc(N2CCOc3ccc(CO)cc3C2)c1C | 22.14%
CN(C)CCOCC1CN(C(=O)c2ccccn2)Cc2ccnn2C1 (stereo not shown) | -36.85%
Cc1ccccc1N(CC(=O)NCCc1nnc2n1CCC2)S(C)(=O)=O | 23.71%
O=C(O)c1cccc(C2CCCN(S(=O)(=O)C3CC3)C2)c1 (stereo not shown) | 5.385%
CN(C)CCO[C@H]1C[C@@H](O)C12CCN(c1cnccn1)CC2 | 12.84%
O=C(O)C(F)(F)F.O=C(O)C(F)(F)F.O=C(O)C(F)(F)F.[H][C@@]12CCCO[C@]1([H])[C@H](N(C)Cc1ccco1)CN2Cc1nccn1C | -2.136% & -16.96%
CCS(=O)(=O)N1C[C@@H](c2ccccc2)[C@@]2(CCNC2=O)C1 | -0.841%
Cn1c(CS(=O)(=O)c2ccc(Cl)cc2)cc(=O)n(C)c1=O | -12.67% & -2.455%
COc1ccc(Br)cc1CC(=O)N1CCCC1 | -0.3997%
COC(C)(C)CC(C)NCc1cn2ccccc2n1 (stereo not shown) | -0.05545%
Cl.Cl.c1csc(CN2CCc3c(CNc4nncs4)cncc3C2)c1 | -20.89%
O=C(NCCNc1cnccn1)N1CCc2ccccc2C1 | -25.42%
O=C1NCCN1C(CNS(=O)(=O)C1CC1)Cc1cccc(F)c1 (stereo not shown) | -9.239%
CC(=O)NCC1CCN(c2cc(C)nc(-c3ccncc3)n2)CC1 | 9.619%
Cc1ccc(C(=O)N(Cc2ccc(F)cc2F)C2CC2)c(=O)[nH]1 | -28.86%
CCOC(=O)N1CCN(CC(=O)Nc2ccc(F)cc2Cl)CC1 | -0.5095% & -0.4234%
O=C(Cc1c(F)cccc1Cl)Nc1cc(N2CCOCC2)ncn1 | 8.436%
COc1ccc(Cl)cc1CCNC(=O)NCc1ccncc1 | 6.118%
Cc1nonc1N1CCN(Cc2nc(CC3CC3)no2)CC1 | -21.99%
Cc1c(C(=O)N2CCC3(CCCN(CC4CC4)C3=O)C2)ccn1C (stereo not shown) | -4.472% & -28.8%
CC(NCCN1CCC(N(C)C)CC1)c1ccc(Cl)s1 (stereo not shown) | -3.281%
NC(=O)NC(=O)CCN1C(=O)CC(Cc2ccc(F)cc2)C1=O (stereo not shown) | 7.099% & 7.347%
Cc1cc(C2CCC2)nc(N2CCC3(CCNC(=O)CC3)CC2)n1 | 29.89%
Cn1cnnc1-c1cncc(NCc2cccc3c2OCO3)c1 | 1.829%
Cc1cc(CN2CCCC2)cc(Oc2ccc(C(F)(F)F)cn2)c1 | 1.622%
CC(C)S(=O)(=O)CCN1CCc2c(ncn2C2CC2)C1 | 12.2%
COC(=O)C(C)(C)NC(=O)c1scnc1Cl | 17.4%
O=C(O)C(F)(F)F.O=C(O)C(F)(F)F.c1ccc(CCN2CCn3cc(Cn4cccn4)nc3C2)cc1 | -19.16%
COCCCNC(=O)Nc1cccc(Cl)c1-n1cccn1 | -25.69%
O=C(CC1CC1)N1CCc2ncc(Cn3cncn3)n2CC1.O=C(O)C(F)(F)F | -9.016% & 6.198%
CCOCc1nn(C)c2c1CN(CCO)CC2 | -3.862%
CC(C)c1nc(CN(C)C(=O)c2ccccc2C2CCNC2)cs1 (stereo not shown) | -15.56% & 10.19%
CC(Cn1cccn1)NCC(=O)NCCc1cccs1 (stereo not shown) | 14.6%

The last 3 entries again:

structure,Percent Effect
CCOCc1nn(C)c2c1CN(CCO)CC2,-3.862%
CC(C)c1nc(CN(C)C(=O)c2ccccc2C2CCNC2)cs1 (stereo not shown),-15.56% & 10.19%
CC(Cn1cccn1)NCC(=O)NCCc1cccs1 (stereo not shown),14.6%